Results from the supplement of paper PMC7666118.
Some of the results follow.

Chains of the proteins cited; added tags and fusions are not shown. Lines headed by an entry give the natural chain unless they say otherwise; changes in a name come on top.
UniProt P31937: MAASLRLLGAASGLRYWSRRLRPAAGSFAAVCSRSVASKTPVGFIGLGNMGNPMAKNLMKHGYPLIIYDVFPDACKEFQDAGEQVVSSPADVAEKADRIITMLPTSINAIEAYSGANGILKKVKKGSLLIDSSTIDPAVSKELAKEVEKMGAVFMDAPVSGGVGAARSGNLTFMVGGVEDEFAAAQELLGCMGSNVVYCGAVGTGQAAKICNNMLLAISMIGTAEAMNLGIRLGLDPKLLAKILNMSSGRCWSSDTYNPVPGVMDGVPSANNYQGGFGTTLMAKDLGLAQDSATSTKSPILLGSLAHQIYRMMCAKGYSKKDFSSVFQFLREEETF
UniProt P49590: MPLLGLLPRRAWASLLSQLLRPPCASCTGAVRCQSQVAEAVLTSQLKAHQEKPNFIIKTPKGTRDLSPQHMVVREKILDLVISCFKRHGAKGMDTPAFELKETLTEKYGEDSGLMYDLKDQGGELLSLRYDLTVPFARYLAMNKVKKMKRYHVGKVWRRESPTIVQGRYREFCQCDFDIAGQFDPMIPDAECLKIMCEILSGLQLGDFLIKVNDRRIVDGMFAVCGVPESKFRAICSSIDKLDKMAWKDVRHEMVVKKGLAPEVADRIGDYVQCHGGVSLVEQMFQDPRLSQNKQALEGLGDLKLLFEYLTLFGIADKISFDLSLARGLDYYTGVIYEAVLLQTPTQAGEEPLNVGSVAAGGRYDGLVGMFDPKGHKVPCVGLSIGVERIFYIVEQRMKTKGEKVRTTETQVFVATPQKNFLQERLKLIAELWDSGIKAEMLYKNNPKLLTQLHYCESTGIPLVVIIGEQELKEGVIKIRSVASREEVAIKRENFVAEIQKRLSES
UniProt O14653: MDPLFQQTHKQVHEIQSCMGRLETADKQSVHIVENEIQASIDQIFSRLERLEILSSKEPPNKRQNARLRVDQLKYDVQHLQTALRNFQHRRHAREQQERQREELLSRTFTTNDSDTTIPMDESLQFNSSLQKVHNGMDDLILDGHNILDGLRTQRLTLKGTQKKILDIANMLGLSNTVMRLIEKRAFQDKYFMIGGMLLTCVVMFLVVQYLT
UniProt P04899, whole entry: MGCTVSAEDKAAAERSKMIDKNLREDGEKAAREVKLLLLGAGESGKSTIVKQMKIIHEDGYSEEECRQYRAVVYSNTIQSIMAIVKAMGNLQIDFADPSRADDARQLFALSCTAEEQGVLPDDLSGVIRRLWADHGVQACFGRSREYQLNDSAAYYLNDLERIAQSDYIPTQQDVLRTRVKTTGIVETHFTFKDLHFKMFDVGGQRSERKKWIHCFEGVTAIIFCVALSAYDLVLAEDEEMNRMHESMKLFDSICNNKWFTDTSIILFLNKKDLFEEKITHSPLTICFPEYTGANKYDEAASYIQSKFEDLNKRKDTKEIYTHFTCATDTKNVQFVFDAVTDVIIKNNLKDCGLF
UniProt P51610: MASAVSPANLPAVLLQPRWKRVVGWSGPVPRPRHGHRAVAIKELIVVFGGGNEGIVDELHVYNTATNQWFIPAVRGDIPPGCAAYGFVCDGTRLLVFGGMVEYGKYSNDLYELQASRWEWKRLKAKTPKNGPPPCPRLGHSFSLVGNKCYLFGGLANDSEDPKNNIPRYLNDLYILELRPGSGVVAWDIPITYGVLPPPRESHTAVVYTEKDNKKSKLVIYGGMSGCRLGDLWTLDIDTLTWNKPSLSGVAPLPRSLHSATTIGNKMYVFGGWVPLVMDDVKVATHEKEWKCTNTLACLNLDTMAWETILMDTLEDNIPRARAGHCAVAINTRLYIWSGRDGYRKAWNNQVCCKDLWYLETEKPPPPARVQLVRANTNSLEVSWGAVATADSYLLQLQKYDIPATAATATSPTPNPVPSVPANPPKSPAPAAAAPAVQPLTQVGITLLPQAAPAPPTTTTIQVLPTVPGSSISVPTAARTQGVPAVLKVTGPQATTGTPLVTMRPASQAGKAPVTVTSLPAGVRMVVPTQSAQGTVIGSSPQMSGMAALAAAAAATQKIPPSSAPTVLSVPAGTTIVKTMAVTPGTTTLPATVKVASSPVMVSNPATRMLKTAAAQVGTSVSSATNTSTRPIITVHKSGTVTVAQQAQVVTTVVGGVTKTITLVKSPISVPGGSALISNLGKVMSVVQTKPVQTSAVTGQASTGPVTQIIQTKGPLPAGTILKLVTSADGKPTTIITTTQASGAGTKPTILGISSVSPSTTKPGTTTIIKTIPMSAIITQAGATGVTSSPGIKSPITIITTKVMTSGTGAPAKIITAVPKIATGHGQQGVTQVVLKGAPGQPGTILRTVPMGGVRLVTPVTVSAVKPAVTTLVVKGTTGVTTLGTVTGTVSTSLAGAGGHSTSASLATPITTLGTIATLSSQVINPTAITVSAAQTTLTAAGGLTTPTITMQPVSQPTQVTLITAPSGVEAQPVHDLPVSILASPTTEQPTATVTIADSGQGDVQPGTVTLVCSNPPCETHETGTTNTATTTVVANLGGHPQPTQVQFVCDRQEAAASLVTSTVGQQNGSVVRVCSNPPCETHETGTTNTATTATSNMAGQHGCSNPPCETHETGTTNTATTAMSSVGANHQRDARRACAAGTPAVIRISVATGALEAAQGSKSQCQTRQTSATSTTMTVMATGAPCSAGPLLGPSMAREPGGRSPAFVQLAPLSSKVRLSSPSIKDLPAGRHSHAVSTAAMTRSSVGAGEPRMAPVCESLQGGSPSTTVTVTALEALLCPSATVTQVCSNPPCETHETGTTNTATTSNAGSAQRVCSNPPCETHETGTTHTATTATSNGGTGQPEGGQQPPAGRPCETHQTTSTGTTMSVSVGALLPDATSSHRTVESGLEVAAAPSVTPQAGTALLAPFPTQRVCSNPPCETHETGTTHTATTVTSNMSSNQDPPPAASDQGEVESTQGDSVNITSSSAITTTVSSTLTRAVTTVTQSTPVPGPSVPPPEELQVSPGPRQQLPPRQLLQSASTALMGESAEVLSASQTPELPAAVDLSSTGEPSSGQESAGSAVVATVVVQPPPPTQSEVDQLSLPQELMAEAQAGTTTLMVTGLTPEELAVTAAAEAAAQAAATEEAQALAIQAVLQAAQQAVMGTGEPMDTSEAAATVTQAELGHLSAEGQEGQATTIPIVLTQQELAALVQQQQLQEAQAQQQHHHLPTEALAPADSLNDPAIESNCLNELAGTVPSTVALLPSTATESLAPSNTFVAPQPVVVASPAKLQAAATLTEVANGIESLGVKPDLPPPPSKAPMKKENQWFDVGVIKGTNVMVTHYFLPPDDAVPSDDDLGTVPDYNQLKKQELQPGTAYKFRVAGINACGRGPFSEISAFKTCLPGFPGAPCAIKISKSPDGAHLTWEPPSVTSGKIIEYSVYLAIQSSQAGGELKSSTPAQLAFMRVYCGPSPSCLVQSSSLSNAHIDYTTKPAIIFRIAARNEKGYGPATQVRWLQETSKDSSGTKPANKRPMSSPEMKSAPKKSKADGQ
UniProt Q86Z02: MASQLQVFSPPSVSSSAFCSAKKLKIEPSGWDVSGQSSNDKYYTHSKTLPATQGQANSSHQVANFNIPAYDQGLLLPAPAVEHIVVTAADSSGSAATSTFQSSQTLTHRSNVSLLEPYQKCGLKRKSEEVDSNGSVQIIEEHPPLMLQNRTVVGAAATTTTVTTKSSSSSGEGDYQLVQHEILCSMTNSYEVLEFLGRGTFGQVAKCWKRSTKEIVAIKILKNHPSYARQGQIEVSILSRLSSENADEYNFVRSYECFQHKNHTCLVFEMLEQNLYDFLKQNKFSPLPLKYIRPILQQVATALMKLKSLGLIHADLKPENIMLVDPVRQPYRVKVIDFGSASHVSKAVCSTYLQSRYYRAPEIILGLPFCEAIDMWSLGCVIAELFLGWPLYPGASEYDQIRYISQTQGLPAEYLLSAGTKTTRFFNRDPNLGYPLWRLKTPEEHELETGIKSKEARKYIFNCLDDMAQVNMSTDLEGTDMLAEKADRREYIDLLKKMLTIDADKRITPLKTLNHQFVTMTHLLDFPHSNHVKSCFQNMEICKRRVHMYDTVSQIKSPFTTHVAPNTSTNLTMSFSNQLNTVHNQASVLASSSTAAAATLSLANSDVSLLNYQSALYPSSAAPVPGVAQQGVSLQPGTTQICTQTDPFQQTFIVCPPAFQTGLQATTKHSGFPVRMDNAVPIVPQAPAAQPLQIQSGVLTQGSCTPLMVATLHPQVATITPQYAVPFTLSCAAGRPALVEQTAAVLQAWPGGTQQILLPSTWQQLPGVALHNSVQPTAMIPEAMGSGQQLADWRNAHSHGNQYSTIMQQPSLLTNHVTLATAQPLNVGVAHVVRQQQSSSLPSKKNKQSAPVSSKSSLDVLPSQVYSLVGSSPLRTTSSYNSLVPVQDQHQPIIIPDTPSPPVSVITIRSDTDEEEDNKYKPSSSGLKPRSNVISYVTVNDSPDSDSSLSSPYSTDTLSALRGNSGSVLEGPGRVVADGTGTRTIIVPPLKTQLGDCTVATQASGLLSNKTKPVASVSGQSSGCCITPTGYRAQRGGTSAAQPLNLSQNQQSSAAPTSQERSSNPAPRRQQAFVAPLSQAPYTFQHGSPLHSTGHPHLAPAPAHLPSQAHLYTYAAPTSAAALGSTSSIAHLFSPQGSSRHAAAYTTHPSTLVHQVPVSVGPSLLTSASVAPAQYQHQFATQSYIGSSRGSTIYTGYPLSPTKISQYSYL
UniProt Q9UJY4: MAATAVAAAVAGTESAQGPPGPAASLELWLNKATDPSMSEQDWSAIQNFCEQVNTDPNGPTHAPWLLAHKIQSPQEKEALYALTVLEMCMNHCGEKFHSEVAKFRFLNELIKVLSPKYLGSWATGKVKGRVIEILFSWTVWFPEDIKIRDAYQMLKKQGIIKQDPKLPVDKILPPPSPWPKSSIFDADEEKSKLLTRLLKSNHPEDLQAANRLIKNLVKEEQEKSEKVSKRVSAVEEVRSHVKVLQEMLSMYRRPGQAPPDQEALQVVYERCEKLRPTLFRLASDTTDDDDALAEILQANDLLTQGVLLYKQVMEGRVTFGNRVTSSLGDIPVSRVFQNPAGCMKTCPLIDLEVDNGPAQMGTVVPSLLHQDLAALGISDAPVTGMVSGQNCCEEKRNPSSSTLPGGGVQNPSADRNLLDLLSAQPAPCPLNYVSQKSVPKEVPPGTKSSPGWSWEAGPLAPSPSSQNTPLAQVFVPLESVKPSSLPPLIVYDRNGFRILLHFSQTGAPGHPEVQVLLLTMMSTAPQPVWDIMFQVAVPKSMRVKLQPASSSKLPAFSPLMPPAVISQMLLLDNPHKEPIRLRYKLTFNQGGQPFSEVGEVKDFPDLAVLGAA
UniProt Q9BX10: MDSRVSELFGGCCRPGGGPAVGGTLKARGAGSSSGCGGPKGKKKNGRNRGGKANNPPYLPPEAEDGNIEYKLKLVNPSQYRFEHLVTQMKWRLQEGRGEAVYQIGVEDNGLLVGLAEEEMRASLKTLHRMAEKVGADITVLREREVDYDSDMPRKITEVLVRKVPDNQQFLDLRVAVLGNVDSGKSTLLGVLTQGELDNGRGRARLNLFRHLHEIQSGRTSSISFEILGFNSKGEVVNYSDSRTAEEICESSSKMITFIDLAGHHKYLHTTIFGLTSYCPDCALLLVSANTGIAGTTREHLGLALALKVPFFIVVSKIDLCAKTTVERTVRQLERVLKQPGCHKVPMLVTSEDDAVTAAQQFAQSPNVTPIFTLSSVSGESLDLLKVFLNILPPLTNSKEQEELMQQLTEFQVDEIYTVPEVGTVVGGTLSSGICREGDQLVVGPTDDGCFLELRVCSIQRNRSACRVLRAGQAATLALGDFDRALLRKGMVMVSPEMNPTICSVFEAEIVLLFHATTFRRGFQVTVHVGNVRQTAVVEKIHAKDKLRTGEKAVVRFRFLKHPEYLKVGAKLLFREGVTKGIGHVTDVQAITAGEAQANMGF
UniProt Q8N4P3, whole entry: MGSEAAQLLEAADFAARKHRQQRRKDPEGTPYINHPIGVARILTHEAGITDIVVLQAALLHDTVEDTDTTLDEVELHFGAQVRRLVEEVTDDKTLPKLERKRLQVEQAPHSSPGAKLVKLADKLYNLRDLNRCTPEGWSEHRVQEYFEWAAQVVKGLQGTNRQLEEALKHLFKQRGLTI
UniProt Q9NPR9: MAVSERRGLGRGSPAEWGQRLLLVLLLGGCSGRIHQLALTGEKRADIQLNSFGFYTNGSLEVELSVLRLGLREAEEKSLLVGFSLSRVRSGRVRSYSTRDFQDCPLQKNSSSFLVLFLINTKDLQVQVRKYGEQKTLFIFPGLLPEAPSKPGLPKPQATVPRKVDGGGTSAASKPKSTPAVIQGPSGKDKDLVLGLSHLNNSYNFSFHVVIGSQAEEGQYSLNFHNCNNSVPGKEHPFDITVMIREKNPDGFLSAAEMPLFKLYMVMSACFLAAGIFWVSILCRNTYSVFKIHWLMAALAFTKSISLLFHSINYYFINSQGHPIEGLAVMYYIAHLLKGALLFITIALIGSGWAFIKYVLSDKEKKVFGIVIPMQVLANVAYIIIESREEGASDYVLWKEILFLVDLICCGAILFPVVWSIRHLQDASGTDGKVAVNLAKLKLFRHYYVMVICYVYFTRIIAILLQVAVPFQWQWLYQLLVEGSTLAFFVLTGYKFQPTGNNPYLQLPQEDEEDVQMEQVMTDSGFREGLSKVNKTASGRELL

Compound: COc1ccc(Cn2ccc3ccc(C(=O)NO)cc32)cc1
Test: dose-dependent thermal stabilisation call (2D-TPP, DLPTP, 10% FDR) (binary (1 = stabilised)); higher = stabilised by the compound
Conditions: system: HL-60 intact cells; concentration range 0.04-10 µM

Target	dose-dependent thermal stabilisation call
GCLC (UniProt P48506)	inactive: 0
GOLIM4 (UniProt O00461)	inactive: 0
GOLGA3 (UniProt Q08378)	inactive: 0
HIBADH (UniProt P31937)	active: 1
GLT25D2 (UniProt Q8IYK4)	inactive: 0
GPKOW (UniProt Q92917)	inactive: 0
GPX1 (UniProt P07203)	inactive: 0
GTPBP5 (UniProt Q9H4K7)	inactive: 0
HINT1 (UniProt P49773)	inactive: 0
GLT8D3 (UniProt Q4G148)	inactive: 0
GNAI3 (UniProt P08754)	inactive: 0
GOT1 (UniProt P17174)	inactive: 0
GTPBP3 (UniProt Q969Y2)	inactive: 0
HDLBP (UniProt Q00341)	inactive: 0
GRAMD1A (UniProt Q96CP6)	inactive: 0
HARS2 (UniProt P49590)	inactive: 0
HISPPD1 (UniProt O43314)	inactive: 0
GRN (UniProt P28799)	inactive: 0
HEATR1 (UniProt Q9H583)	inactive: 0

For convenience, part of the list above.
Target	dose-dependent thermal stabilisation call
HINT1 (UniProt P49773)	inactive: 0
GLT8D3 (UniProt Q4G148)	inactive: 0

Additional results follow.

Target	dose-dependent thermal stabilisation call
GOSR2 (UniProt O14653)	inactive: 0
GSPT1 (UniProt P15170)	inactive: 0
GOLM1 (UniProt Q8NBJ4)	inactive: 0
GNAI2 (UniProt P04899)	inactive: 0
HCFC1 (UniProt P51610)	inactive: 0
GPR125 (UniProt Q8IWK6)	inactive: 0
HEXA (UniProt P06865)	inactive: 0
GDE1 (UniProt Q9NZC3)	inactive: 0
HISPPD2A (UniProt Q6PFW1)	inactive: 0
HIPK1 (UniProt Q86Z02)	inactive: 0
GGA2 (UniProt Q9UJY4)	inactive: 0
GTPBP2 (UniProt Q9BX10)	inactive: 0
HDDC3 (UniProt Q8N4P3)	inactive: 0
HDDC2 (UniProt Q7Z4H3)	inactive: 0
GLB1 (UniProt P16278)	inactive: 0
GPR108 (UniProt Q9NPR9)	inactive: 0
GMDS (UniProt O60547)	inactive: 0
HBXIP (UniProt O43504)	inactive: 0
